In paper PMC10527789:
These are yes or no findings as the source states them, for the method shown. Binding seen in cells or lysates may run through a third protein. Some entries that bind do so weakly or less than the wild type.

Chains of the proteins cited; added tags and fusions are not shown.
UniProt Q00987: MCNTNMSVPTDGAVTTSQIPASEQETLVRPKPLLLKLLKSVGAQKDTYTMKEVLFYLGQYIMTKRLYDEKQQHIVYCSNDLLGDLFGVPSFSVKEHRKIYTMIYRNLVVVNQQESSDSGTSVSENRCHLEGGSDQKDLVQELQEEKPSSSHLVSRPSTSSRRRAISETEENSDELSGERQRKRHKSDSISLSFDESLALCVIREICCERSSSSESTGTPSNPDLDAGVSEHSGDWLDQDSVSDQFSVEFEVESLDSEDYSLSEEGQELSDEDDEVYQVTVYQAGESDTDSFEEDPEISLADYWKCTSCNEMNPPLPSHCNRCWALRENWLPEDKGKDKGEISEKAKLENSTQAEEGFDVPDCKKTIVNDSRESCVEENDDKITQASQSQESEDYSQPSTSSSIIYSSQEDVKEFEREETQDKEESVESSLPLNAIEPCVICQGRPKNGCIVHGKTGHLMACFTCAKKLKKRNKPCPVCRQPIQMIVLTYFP
UniProt P23804: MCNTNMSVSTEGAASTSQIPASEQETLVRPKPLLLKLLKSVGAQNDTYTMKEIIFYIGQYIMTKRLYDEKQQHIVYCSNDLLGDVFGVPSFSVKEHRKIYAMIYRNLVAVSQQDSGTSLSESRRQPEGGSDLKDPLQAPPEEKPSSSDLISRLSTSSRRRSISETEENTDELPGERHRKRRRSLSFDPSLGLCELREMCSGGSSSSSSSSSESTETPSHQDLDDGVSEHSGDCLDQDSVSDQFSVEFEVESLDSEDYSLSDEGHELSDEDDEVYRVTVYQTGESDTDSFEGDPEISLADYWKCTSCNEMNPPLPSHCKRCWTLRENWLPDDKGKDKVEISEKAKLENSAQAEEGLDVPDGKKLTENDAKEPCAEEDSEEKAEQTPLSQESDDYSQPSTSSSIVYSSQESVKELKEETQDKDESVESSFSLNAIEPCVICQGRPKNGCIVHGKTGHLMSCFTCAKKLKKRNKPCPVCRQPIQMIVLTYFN

Experiments:
[1] = molecular target: Caveolin-1 (human, endogenous in CCD-986Sk fibroblasts) (human (endogenous in CCD-986Sk)) (UniProt Q03135); assay: co-IP; Lysates of human fibroblasts (CCD-986Sk) in NP buffer, precleared; 1 mg protein with 1 µg Cav-1 antibody overnight at 4 °C, protein A/G agarose; MDM2 and Sirt1 detected by Western blot; control cells, H2O2-induced senescent cells, and senescent cells after HIFU (LINEAR or DOT mode, 0.3, 0.5 or 0.7 J)
[2] = molecular target: T1, Caveolin-1 (mouse, endogenous in skin) (mouse (endogenous in C57BL/6 skin)) (UniProt P49817); assay: co-IP; Homogenates of mouse skin (100 mg) in NP buffer, precleared; 1 mg protein with 1 µg Cav-1 antibody overnight at 4 °C, protein A/G agarose; MDM2 and Sirt1 detected by Western blot; young mice, aging mice, and aging mice after HIFU (LINEAR or DOT mode, 0.3, 0.5 or 0.7 J)
T1 sequence: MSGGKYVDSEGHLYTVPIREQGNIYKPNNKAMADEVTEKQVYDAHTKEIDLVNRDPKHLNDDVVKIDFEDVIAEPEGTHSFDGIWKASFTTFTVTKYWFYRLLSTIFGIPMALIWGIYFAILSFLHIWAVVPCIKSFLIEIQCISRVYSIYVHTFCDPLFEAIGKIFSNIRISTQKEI

Substance | binding [1] | binding [2]
Mouse double minute 2 homolog (human, endogenous in CCD-986Sk fibroblasts) (from UniProt Q00987 1-491) | binds | –
Mouse double minute 2 homolog (mouse, endogenous in skin) (from UniProt P23804 1-489) | – | binds
